Test results from article doi:10.1101/2025.06.03.657556.
No constants are given. Whether binding was seen depends on the method and setting. Binding seen in cells or lysates may run through a third protein. Some binding calls cover weakened binding; strength is not graded here.

The chains behind the UniProt entries cited, without tags or fusion partners.
UniProt P61586: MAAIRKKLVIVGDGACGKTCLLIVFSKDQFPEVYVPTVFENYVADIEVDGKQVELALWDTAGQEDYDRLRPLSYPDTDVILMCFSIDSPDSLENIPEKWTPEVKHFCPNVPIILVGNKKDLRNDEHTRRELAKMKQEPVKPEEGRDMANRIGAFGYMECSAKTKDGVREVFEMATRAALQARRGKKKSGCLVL

Biological target: Ras homolog gene family member A (RhoA) (human (endogenous in HEK 293F)) (UniProt P61586)
Assay: proximity ligation

B1: RhoGDIα (protein, UniProt P52565 1-204)
chain: MAEQEPTAEQLAQIAAENEEDEHSVNYKPPAQKSIQEIQELDKDDESLRKYKEALLGRVAVSADPNVPNVVVTGLTLVCSSAPGPLELDLTGDLESFKKQSFVLKEGVEYRIKISFRVNREIVSGMKYIQHTYRKGVKIDKTDYMVGSYGPRAEEYEFLTPVEEAPKGMLARGSYSIKSRFTDDDKTDHLSWEWNLTIKKDWKD
  binding: binds
